# Some of the results follow.
# The chains behind the UniProt entries cited, without tags or fusion partners. Where a name states a change or a piece, a line headed by the entry shows the natural chain unless it says otherwise.
# UniProt O43617, whole entry: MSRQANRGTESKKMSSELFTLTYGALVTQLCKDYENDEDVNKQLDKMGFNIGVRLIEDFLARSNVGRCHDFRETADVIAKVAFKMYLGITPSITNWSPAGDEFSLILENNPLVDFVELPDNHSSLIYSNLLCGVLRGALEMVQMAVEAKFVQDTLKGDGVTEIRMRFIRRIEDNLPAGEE
# UniProt P12270, whole entry: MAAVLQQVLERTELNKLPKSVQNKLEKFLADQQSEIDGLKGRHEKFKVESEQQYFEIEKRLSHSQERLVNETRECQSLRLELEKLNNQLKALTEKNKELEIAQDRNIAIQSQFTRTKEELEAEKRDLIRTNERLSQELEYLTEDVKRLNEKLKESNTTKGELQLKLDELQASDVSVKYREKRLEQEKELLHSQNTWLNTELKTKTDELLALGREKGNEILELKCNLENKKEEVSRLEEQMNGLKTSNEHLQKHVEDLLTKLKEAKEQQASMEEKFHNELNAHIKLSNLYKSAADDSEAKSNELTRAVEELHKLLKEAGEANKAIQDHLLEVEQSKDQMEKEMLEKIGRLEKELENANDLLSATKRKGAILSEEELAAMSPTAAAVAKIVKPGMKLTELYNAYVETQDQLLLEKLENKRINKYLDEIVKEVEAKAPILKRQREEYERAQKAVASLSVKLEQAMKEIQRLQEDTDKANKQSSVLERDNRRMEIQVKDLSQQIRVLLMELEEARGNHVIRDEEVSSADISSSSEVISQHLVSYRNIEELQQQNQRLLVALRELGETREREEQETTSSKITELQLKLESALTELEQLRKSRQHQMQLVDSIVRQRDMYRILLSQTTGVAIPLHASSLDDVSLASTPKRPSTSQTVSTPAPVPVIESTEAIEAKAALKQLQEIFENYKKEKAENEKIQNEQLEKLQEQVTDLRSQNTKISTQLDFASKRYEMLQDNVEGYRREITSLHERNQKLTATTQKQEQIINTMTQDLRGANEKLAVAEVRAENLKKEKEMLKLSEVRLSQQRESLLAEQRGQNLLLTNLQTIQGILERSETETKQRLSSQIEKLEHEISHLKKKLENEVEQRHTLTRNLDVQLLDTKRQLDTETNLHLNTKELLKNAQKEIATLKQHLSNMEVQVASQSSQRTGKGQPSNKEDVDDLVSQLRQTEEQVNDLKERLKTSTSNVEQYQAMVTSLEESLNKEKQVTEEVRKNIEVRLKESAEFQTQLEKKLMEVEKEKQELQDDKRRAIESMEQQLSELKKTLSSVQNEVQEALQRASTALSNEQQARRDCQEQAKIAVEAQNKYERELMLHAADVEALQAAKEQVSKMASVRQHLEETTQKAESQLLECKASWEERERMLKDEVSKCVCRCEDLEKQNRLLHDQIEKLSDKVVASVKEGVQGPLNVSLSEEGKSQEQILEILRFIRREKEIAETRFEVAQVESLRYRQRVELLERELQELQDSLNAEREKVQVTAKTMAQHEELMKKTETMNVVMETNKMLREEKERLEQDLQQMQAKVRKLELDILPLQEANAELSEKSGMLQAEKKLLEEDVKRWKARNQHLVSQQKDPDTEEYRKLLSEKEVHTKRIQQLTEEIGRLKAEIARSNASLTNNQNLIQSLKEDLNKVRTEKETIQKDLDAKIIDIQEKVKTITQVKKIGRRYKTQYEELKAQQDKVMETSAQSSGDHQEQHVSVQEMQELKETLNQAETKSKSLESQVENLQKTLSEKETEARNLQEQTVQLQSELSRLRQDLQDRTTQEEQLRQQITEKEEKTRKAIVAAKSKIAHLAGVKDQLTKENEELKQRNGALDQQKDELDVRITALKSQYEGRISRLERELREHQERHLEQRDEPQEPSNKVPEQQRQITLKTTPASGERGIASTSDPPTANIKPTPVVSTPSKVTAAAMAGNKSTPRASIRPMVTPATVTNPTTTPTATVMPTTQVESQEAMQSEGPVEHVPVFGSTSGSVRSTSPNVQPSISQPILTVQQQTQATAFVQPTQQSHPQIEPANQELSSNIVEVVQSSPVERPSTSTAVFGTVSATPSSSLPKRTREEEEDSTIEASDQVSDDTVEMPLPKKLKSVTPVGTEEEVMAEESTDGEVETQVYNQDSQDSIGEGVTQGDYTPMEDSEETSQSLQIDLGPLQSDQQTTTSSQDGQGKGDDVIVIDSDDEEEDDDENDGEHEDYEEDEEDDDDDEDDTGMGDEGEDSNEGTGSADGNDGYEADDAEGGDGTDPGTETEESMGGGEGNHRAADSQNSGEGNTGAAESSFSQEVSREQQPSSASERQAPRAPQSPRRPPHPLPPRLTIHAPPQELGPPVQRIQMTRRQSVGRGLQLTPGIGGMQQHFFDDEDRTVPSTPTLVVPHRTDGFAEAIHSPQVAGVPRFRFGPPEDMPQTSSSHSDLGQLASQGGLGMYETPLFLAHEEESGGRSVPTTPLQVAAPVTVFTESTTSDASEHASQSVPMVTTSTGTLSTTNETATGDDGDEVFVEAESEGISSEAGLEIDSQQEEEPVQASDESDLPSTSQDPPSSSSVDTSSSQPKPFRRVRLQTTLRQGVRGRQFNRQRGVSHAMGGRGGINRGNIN
# UniProt O15050: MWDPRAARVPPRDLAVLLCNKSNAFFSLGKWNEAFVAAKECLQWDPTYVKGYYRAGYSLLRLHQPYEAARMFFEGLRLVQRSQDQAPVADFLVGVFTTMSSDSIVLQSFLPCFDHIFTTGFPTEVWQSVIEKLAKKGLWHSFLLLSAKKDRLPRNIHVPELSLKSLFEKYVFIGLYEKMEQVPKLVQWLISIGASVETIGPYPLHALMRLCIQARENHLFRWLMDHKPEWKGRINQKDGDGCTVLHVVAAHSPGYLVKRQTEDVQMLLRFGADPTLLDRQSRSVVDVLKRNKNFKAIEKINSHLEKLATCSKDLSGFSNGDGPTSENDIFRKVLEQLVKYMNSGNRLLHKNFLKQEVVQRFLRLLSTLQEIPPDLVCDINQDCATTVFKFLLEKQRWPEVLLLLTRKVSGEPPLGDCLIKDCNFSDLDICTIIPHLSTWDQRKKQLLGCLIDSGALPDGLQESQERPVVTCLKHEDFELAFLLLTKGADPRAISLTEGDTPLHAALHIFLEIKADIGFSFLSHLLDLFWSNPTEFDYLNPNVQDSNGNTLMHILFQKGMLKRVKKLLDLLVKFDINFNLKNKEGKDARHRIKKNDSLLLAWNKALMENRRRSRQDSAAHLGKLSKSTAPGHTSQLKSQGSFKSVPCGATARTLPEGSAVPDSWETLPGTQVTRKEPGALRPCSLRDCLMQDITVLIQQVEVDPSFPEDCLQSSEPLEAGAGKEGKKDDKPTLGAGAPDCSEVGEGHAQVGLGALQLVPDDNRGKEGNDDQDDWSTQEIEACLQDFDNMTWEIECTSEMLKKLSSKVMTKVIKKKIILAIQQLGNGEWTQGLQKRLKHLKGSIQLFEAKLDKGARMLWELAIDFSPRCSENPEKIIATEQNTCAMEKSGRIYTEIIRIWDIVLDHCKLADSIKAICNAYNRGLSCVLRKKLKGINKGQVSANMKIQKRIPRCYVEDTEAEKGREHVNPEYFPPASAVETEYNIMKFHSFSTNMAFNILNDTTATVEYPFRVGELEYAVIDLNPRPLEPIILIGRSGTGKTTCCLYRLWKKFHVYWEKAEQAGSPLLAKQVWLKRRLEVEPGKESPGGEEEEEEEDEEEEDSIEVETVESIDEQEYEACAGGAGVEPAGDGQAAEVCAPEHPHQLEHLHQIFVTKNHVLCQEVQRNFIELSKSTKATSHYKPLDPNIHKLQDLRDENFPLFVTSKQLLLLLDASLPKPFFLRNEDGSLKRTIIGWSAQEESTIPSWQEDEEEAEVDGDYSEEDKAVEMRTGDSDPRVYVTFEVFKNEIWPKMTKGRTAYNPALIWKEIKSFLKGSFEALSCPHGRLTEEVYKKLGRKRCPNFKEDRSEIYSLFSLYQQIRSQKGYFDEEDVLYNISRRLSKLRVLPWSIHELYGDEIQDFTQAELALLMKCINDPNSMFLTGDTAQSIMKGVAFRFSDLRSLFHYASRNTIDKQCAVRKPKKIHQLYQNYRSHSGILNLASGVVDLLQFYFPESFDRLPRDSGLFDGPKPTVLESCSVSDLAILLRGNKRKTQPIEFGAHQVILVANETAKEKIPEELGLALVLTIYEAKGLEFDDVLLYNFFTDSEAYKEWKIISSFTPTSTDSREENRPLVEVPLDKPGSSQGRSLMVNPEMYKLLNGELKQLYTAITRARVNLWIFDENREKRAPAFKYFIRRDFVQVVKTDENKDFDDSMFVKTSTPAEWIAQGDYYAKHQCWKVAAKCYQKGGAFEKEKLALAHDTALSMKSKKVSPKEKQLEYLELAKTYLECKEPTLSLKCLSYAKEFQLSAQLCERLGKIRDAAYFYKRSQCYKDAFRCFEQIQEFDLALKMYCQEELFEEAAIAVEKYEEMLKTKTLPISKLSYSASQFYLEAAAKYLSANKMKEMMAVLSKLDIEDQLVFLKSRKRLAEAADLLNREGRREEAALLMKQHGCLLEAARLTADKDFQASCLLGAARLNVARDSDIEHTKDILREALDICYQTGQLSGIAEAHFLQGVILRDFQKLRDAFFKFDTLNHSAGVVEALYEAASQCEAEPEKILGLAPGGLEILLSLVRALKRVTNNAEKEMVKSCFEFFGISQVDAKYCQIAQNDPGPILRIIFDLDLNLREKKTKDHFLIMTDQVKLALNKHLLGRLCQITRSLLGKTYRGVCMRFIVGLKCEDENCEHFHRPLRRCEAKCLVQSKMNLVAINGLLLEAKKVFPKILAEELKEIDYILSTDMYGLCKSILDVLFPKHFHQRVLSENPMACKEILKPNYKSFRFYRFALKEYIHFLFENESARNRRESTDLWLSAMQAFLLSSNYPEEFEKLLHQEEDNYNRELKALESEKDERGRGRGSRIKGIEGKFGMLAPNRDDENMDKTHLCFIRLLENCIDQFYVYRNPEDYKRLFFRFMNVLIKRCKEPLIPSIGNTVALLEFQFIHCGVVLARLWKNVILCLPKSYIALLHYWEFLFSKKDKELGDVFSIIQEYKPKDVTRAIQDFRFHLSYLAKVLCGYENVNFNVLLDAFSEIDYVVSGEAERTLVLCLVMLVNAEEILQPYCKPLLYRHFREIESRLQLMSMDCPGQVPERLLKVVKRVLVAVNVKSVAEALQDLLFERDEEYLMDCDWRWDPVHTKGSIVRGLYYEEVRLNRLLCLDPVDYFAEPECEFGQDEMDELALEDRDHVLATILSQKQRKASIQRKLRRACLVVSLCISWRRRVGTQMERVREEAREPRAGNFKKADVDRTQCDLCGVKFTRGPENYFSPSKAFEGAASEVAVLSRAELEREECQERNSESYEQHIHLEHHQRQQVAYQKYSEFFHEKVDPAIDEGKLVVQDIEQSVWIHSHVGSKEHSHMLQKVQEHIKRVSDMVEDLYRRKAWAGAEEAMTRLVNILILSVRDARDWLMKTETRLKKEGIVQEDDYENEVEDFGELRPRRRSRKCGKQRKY
# UniProt Q9H3H1: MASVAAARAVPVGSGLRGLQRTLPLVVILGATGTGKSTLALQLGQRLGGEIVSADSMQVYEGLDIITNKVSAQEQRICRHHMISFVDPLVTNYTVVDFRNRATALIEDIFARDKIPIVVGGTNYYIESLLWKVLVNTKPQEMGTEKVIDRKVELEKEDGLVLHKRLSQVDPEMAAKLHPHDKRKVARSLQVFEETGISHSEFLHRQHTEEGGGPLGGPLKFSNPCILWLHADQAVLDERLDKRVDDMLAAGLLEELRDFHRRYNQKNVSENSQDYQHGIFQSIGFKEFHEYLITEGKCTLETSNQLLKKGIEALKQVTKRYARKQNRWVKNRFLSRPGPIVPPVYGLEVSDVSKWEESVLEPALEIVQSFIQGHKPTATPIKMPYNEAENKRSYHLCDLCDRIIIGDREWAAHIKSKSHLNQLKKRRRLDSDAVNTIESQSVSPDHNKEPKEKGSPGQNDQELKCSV
# UniProt O14545: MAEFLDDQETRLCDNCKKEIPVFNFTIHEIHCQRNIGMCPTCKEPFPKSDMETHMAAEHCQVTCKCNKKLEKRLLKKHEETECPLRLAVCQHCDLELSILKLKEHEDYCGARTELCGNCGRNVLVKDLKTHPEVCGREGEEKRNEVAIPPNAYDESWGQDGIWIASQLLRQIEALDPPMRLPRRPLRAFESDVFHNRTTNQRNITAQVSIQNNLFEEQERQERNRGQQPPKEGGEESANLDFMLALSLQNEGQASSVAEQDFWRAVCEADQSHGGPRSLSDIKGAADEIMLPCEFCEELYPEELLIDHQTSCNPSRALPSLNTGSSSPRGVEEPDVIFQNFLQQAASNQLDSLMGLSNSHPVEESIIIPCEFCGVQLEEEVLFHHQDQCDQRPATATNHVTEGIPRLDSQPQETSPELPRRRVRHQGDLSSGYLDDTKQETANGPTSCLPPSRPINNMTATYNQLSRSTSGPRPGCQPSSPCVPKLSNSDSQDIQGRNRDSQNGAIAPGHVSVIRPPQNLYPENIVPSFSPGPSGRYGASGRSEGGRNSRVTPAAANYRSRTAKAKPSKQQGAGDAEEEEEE
# Compound: CC1Cc2ccccc2N1C(=O)C1CCCN(C1)C(=O)CCl (mixture of isomers) [TRIM25 ligand 11 (diastereomer mixture)]
# Experiment: probe-labelled cysteine peptide fold change vs DMSO (competition) (log2 fold change); higher = less target engagement (more negative = stronger competition)
# Conditions: THP-1, incubation time: 4 h
# 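Also: competitive chemoproteomic profiling in live THP-1 cells with an iodoacetamide desthiobiotin (IA-DTB) probe, comparing probe-labelled peptide intensities in compound-treated cells against DMSO-treated controls.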
Target,probe-labelled cysteine peptide fold change (10 µM),probe-labelled cysteine peptide fold change (50 µM)
TRIM28_Q13263_713_VLLALFCHEPCRPLHQLATDSTFSLDQPGGTLDLTLIR (UniProt Q13263),-0.0585,-0.0188
TRAPPC11_Q7Z392_615_ADCPHPIR (UniProt Q7Z392),0.044,0.152
TPP2_P29144_197_YSDPGPVYDCLVWHDGEVWR (UniProt P29144),0.00189,0.0291
TPP2_P29144_1129_KGCALADHLLHTQAQDGAISTDAEGKEEEGESPLDSLAETFWETTK (UniProt P29144),0.0582,-0.156
TRAPPC3_O43617_31_MSSELFTLTYGALVTQLCK (UniProt O43617),-0.0049,-0.0477
TRIM25_Q14258_524_NNFCGVGICYGSMNR (UniProt Q14258),-0.0642,0.0911
TPR_P12270_1127_AESQLLECK (UniProt P12270),0.0441,0.0191
TRIM21_P19474_114_ALCWVCAQSR (UniProt P19474),0.0585,0.169
TRANK1_O15050_1930_QHGCLLEAAR (UniProt O15050),-0.0212,0.0823
TRIM24_O15164_223_QKEEVSPEAVGVTSQRPVFCPFHK (UniProt O15164),-0.0299,-0.169
TRIT1_Q9H3H1_298_CTLETSNQLLK (UniProt Q9H3H1),-0.0228,-0.0748
TRANK1_O15050_1947_DFQASCLLGAAR (UniProt O15050),0.136,0.0594
TPP2_P29144_1218_NCIQLMK (UniProt P29144),0.0168,0.124
TRAFD1_O14545_32_EIPVFNFTIHEIHCQR (UniProt O14545),0.202,0.322

# — the supplement of paper PMC12067093, “Discovery and optimisation of a covalent ligand for TRIM25 and its application to targeted protein ubiquitination” (Chemical Science, 2025)
